Laboratory results taken from patent US10159726B2, “Peptides, combination of peptides and scaffolds for use in immunotherapeutic treatment of various cancers” (Immatics Biotechnologies GmbH, priority 2015, dated 2018).
For part of these data: Expression values are those of the mRNA of the gene that encodes the peptide; a gene is named only where it was looked up.

Legend:
Set-up in all cases: species or system human
[1] = test system: HLA-A*24 molecules of primary tumors; experiment: Identification and relative LC-MS quantitation of HLA-A*24 tumor-associated peptides presented on tissue samples (XPRESIDENT presentation profiles); conditions: for ENTITIES: Table 9A: selected HLA-A*24-binding tumor-associated peptides, cancer entities on which the peptide was found presented
[2] = test system: source genes of selected peptides; experiment: Expression profiling of source genes by in-house RNAseq, tumor vs normal tissues (target coverage); conditions: for Target coverage, over-expression of source gene, AML: AML (N = 7); for Target coverage, over-expression of source gene, AML / Target coverage, over-expression of source gene, BRCA / Target coverage, over-expression of source gene, CLL / Target coverage, over-expression of source gene, CRC / Target coverage, over-expression of source gene, GB / Target coverage, over-expression of source gene, HCC / Target coverage, over-expression of source gene, OC / Target coverage, over-expression of source gene, OSCAR / Target coverage, over-expression of source gene, PC / Target coverage, over-expression of source gene, RCC / Target coverage, over-expression of source gene, SCLC / Target coverage, over-expression of source gene, pNSCLC: share of tumors with more than 1.5-fold higher expression than highest relevant normal tissue, in-house RNASeq; for Target coverage, over-expression of source gene, BRCA: BRCA (N = 10); for Target coverage, over-expression of source gene, CLL: CLL (N = 10); for Target coverage, over-expression of source gene, CRC: CRC (N = 20); for Target coverage, over-expression of source gene, GB: GB (N = 24); for Target coverage, over-expression of source gene, HCC: HCC (N = 15); for Target coverage, over-expression of source gene, OC: OC (N = 12); for Target coverage, over-expression of source gene, OSCAR: OSCAR (N = 11); for Target coverage, over-expression of source gene, PC: PC (N = 26); for Target coverage, over-expression of source gene, RCC: RCC (N = 10); for Target coverage, over-expression of source gene, SCLC: SCLC (N = 10); for Target coverage, over-expression of source gene, pNSCLC: pNSCLC (N = 11)
[3] = test system: source genes of selected peptides; experiment: Target coverage of source genes in tumor entities based on TCGA Research Network data; conditions: over-expressed = more than 2-fold above the highest 75% percentile of normal organs; for Target coverage, over-expression category of source gene, ACC (N = 79): Adrenocortical carcinoma; for Target coverage, over-expression category of source gene, BLCA (N = 408): Bladder urothelial carcinoma; for Target coverage, over-expression category of source gene, CESC (N = 307): Cervical squamous cell carcinoma and endocervical adenocarcinoma; for Target coverage, over-expression category of source gene, HNSC (N = 521): Head and neck squamous cell carcinoma; for Target coverage, over-expression category of source gene, DLBC (N = 48): Lymphoid neoplasm diffuse large B-cell lymphoma

| Substance | ENTITIES [1] | Target coverage, over-expression of source gene, AML [2] | Target coverage, over-expression of source gene, BRCA [2] | Target coverage, over-expression of source gene, CLL [2] | Target coverage, over-expression of source gene, CRC [2] | Target coverage, over-expression of source gene, GB [2] | Target coverage, over-expression of source gene, HCC [2] | Target coverage, over-expression of source gene, OC [2] | Target coverage, over-expression of source gene, OSCAR [2] | Target coverage, over-expression of source gene, PC [2] | Target coverage, over-expression of source gene, RCC [2] | Target coverage, over-expression of source gene, SCLC [2] | Target coverage, over-expression of source gene, pNSCLC [2] | Target coverage, over-expression category of source gene, ACC (N = 79) [3] | Target coverage, over-expression category of source gene, BLCA (N = 408) [3] | Target coverage, over-expression category of source gene, CESC (N = 307) [3] | Target coverage, over-expression category of source gene, HNSC (N = 521) [3] | Target coverage, over-expression category of source gene, DLBC (N = 48) [3] | further results |
| --- | --- | --- | --- | --- | --- | --- | --- | --- | --- | --- | --- | --- | --- | --- | --- | --- | --- | --- | --- |
| 251: peptide found in NCAPG (gene looked up) (VYTKALSSL; listed as Homo sapiens) [compound 251] | NSCLC, HCC | I (<19% over-expression = I) | I (<19% over-expression = I) | I (<19% over-expression = I) | I (<19% over-expression = I) | I (<19% over-expression = I) | I (<19% over-expression = I) | I (<19% over-expression = I) | I (<19% over-expression = I) | I (<19% over-expression = I) | I (<19% over-expression = I) | III (50-69% = III) | I (<19% over-expression = I) | C (>=5% of tumors above the cutoff, but <20%) | B (>=20% of tumors above the cutoff, but <50%) | A (>=50% of tumors above the cutoff) | B (>=20% of tumors above the cutoff, but <50%) | A (>=50% of tumors above the cutoff) | Target coverage, over-expression category of source gene, CHOL (N = 36) ([3]; Cholangiocarcinoma): C (>=5% of tumors above the cutoff, but <20%); Target coverage, over-expression category of source gene, LGG (N = 534) ([3]; Lower grade glioma): C (>=5% of tumors above the cutoff, but <20%); Target coverage, over-expression category of source gene, MESO (N = 87) ([3]; Mesothelioma): C (>=5% of tumors above the cutoff, but <20%) |
| 258: peptide found in PKD2L1 (gene looked up) (AYAQLGYLL; listed as Homo sapiens) [compound 258] |  | I (<19% over-expression = I) | I (<19% over-expression = I) | I (<19% over-expression = I) | I (<19% over-expression = I) | I (<19% over-expression = I) | I (<19% over-expression = I) | I (<19% over-expression = I) | I (<19% over-expression = I) | I (<19% over-expression = I) | I (<19% over-expression = I) | II (20-49% = II) | I (<19% over-expression = I) |  |  |  |  |  | Peptide Presentation on cancer entities ([1]; Table 9B: selected HLA-A*24 peptides, presentation on additional cancer entities): NSCLC; Target coverage, over-expression category of source gene, KIRP (N = 291) ([3]; Kidney renal papillary cell carcinoma): C (>=5% of tumors above the cutoff, but <20%) |
| 277: peptide found in TDG (gene looked up) (FYTFPFQQL; listed as Homo sapiens) [compound 277] | GC, RCC, PCA, HCC, NSCLC | I (<19% over-expression = I) | I (<19% over-expression = I) | I (<19% over-expression = I) | I (<19% over-expression = I) | I (<19% over-expression = I) | I (<19% over-expression = I) | I (<19% over-expression = I) | I (<19% over-expression = I) | I (<19% over-expression = I) | I (<19% over-expression = I) | II (20-49% = II) | I (<19% over-expression = I) |  | C (>=5% of tumors above the cutoff, but <20%) |  |  | C (>=5% of tumors above the cutoff, but <20%) | Target coverage for source genes of selected peptides, GBC_CCC (N = 10) ([2]; gallbladder adenocarcinoma and cholangiocarcinoma, share of tumors with more than 1.5-fold higher expression than the highest-expressing relevant normal tissue, in-house RNAseq): I (<19% over-expression = I); Target coverage for source genes of selected peptides, GC (N = 11) ([2]; gastric cancer, share of tumors with more than 1.5-fold higher expression than the highest-expressing relevant normal tissue, in-house RNAseq): I (<19% over-expression = I); Target coverage for source genes of selected peptides, HNSCC (N = 10) ([2]; head and neck small cell carcinoma, share of tumors with more than 1.5-fold higher expression than the highest-expressing relevant normal tissue, in-house RNAseq): II (20-49% = II); Target coverage for source genes of selected peptides, MEL (N = 10) ([2]; melanoma, share of tumors with more than 1.5-fold higher expression than the highest-expressing relevant normal tissue, in-house RNAseq): I (<19% over-expression = I); Target coverage for source genes of selected peptides, NHL (N = 10) ([2]; non-Hodgkin lymphoma, share of tumors with more than 1.5-fold higher expression than the highest-expressing relevant normal tissue, in-house RNAseq): I (<19% over-expression = I); Target coverage for source genes of selected peptides, PCA (n = 10) ([2]; prostate cancer and benign prostate hyperplasia, share of tumors with more than 1.5-fold higher expression than the highest-expressing relevant normal tissue, in-house RNAseq): I (<19% over-expression = I); Target coverage for source genes of selected peptides, UBC (N = 10) ([2]; urinary bladder cancer, share of tumors with more than 1.5-fold higher expression than the highest-expressing relevant normal tissue, in-house RNAseq): I (<19% over-expression = I); Target coverage for source genes of selected peptides, UTC (N = 10) ([2]; uterine cancer, share of tumors with more than 1.5-fold higher expression than the highest-expressing relevant normal tissue, in-house RNAseq): I (<19% over-expression = I) |
| 314: peptide found in ITPR2 (gene looked up) (RYFKGDYSI; listed as Homo sapiens) [compound 314] | GB, HCC | I (<19% over-expression = I) | I (<19% over-expression = I) | I (<19% over-expression = I) | I (<19% over-expression = I) | II (20-49% = II) | I (<19% over-expression = I) | I (<19% over-expression = I) | I (<19% over-expression = I) | I (<19% over-expression = I) | I (<19% over-expression = I) | I (<19% over-expression = I) | I (<19% over-expression = I) |  |  |  |  |  | Target coverage, over-expression category of source gene, KICH (N = 66) ([3]; Kidney chromophobe): B (>=20% of tumors above the cutoff, but <50%) |
| 320: peptide found in AURKA (gene looked up) (KFILALKVLF; listed as Homo sapiens) [compound 320] | HCC, NSCLC | I (<19% over-expression = I) | I (<19% over-expression = I) | I (<19% over-expression = I) | I (<19% over-expression = I) | I (<19% over-expression = I) | I (<19% over-expression = I) | I (<19% over-expression = I) | I (<19% over-expression = I) | I (<19% over-expression = I) | I (<19% over-expression = I) | II (20-49% = II) | I (<19% over-expression = I) | C (>=5% of tumors above the cutoff, but <20%) | B (>=20% of tumors above the cutoff, but <50%) | B (>=20% of tumors above the cutoff, but <50%) | B (>=20% of tumors above the cutoff, but <50%) | B (>=20% of tumors above the cutoff, but <50%) |  |
